Measurements taken from the supplement of paper PMC12067093, “Discovery and optimisation of a covalent ligand for TRIM25 and its application to targeted protein ubiquitination” (Chemical Science, 2025).
The list shows a part of the results.

By UniProt entry, the sequences of proteins in these tests, tags left out. Where a name states a change or a piece, a line headed by the entry shows the natural chain unless it says otherwise.
UniProt P53634: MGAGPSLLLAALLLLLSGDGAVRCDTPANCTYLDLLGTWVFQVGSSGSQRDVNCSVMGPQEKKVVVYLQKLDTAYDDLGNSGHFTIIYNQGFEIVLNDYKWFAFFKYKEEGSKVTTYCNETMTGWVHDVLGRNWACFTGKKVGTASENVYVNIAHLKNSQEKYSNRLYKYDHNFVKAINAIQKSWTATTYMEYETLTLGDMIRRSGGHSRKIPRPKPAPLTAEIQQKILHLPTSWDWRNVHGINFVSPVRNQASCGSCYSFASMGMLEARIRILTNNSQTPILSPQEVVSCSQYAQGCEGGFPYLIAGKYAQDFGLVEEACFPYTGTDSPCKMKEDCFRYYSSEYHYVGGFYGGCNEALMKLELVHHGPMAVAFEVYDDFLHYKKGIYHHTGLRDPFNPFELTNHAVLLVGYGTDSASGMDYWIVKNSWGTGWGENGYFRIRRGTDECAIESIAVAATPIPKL
UniProt Q9NV06: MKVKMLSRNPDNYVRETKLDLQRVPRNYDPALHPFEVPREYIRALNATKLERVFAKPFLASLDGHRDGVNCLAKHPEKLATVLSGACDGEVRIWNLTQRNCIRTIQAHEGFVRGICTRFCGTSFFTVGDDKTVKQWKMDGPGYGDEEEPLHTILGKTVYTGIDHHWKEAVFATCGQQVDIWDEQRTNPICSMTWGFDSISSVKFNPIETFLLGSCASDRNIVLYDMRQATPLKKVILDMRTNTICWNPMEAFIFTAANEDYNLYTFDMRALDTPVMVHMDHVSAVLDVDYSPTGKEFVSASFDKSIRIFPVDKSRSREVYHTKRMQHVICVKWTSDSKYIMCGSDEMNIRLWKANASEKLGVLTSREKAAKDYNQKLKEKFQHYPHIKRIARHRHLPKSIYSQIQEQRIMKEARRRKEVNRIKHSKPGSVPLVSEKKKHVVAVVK
UniProt P07339: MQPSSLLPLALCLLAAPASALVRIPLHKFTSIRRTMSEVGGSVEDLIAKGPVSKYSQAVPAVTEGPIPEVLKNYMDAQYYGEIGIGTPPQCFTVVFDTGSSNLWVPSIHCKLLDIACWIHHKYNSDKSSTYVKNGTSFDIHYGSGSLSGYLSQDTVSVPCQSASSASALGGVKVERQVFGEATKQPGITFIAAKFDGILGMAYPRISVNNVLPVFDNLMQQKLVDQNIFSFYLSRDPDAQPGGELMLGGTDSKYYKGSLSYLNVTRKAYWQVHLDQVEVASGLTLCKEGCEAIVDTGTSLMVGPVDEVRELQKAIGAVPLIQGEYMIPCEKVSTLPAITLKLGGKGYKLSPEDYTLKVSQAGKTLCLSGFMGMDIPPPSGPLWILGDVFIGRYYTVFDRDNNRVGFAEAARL
UniProt Q13616, whole entry, looked up: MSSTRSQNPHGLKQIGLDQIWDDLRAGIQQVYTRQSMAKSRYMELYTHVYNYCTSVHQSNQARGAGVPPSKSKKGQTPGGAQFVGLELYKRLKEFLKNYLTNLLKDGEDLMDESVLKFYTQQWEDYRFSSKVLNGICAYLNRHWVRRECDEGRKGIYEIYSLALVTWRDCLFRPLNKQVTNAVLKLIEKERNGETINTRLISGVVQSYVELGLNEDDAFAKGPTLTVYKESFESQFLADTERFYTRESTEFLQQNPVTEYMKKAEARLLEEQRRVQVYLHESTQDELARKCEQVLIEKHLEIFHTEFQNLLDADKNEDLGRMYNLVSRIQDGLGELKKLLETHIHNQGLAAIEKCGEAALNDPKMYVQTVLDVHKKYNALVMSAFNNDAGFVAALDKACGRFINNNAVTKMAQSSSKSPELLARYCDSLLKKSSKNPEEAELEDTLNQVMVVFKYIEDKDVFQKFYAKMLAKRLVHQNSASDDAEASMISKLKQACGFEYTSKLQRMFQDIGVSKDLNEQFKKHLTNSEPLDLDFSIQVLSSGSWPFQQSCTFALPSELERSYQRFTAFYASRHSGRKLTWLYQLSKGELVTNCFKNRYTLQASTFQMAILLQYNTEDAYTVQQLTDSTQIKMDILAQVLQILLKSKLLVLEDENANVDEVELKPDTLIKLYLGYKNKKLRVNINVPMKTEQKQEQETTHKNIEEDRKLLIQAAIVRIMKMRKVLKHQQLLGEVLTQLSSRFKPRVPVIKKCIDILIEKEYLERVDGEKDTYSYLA
UniProt P25025, whole entry: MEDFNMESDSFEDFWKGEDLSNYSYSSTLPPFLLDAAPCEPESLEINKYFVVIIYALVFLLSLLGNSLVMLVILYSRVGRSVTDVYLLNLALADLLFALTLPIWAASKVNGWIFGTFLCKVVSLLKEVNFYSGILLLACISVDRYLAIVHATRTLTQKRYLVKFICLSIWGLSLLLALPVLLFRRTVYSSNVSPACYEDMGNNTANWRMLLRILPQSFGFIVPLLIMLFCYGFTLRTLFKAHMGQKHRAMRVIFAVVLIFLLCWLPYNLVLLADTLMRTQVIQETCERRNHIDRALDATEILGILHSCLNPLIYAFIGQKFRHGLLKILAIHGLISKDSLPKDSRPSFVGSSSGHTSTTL
UniProt Q7Z4W1: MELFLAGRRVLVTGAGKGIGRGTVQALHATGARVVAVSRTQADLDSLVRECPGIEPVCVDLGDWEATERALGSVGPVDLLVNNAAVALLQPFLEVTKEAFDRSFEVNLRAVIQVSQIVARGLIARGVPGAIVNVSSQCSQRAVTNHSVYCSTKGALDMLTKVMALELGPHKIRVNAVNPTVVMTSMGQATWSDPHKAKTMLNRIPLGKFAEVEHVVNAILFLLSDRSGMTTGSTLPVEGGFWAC
UniProt Q9P2B4: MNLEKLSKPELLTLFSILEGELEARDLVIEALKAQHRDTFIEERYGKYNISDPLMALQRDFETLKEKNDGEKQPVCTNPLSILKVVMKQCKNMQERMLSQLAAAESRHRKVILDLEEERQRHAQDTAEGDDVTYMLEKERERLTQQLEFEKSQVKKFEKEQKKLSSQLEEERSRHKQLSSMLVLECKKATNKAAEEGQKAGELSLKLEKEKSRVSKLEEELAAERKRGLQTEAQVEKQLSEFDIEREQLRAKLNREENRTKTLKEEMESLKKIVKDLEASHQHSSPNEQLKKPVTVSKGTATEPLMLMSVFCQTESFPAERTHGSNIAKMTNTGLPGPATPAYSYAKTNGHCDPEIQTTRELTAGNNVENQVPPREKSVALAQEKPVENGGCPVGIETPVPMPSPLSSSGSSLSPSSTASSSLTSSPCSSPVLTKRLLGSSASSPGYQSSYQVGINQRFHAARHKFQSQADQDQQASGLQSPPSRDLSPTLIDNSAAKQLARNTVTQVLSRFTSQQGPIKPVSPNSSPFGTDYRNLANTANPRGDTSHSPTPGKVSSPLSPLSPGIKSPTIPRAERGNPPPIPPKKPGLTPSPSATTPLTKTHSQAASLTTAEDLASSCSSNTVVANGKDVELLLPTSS
UniProt Q58WW2: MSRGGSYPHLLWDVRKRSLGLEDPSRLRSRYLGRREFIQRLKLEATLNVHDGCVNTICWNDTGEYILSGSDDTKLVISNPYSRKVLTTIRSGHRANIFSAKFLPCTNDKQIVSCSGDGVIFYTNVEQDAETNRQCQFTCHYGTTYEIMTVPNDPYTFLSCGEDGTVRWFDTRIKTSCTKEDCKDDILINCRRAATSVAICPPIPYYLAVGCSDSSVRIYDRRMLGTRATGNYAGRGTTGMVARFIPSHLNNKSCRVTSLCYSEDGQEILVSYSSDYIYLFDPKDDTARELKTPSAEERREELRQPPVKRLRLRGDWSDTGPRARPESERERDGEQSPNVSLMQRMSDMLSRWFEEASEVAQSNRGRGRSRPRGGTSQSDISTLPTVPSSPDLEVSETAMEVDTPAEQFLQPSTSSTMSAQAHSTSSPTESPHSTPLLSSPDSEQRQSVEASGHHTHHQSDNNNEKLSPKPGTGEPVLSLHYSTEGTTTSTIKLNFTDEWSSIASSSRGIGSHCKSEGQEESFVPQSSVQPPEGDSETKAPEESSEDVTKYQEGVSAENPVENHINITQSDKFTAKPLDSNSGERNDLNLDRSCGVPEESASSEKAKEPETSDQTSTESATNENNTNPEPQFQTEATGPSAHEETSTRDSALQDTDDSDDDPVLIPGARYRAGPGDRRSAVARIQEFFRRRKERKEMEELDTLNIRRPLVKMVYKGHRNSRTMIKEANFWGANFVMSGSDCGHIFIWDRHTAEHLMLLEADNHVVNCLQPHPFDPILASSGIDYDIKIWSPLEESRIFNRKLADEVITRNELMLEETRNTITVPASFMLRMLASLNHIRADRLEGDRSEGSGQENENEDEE
UniProt Q8TB03: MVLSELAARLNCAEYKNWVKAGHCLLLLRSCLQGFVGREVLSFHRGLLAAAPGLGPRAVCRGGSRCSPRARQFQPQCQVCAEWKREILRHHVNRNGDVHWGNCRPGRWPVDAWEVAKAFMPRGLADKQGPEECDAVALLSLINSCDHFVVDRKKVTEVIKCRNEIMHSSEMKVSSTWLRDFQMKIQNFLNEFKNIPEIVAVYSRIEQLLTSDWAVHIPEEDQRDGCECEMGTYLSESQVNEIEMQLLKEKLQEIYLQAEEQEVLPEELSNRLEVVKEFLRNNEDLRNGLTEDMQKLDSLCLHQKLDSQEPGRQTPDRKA
UniProt Q13619, whole entry, looked up: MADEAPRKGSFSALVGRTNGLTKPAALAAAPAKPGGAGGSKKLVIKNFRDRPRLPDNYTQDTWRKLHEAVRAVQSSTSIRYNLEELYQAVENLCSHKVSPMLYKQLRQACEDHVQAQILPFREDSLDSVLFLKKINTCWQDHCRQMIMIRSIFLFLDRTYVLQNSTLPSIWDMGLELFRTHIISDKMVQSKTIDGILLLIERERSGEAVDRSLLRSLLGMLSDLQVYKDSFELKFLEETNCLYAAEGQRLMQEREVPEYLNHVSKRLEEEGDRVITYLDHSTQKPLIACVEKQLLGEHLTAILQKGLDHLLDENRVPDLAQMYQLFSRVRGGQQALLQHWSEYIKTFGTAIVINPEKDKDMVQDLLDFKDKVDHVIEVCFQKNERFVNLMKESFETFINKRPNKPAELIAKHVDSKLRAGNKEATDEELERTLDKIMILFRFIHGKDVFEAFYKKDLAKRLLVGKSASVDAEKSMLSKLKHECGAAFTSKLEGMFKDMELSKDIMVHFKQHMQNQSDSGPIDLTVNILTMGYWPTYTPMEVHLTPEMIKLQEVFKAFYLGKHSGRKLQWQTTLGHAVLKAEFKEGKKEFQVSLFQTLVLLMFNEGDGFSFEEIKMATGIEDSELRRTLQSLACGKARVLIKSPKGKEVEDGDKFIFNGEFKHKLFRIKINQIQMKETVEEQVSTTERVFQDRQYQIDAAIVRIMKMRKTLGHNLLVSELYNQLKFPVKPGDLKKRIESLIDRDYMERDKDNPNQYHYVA
UniProt Q7L576: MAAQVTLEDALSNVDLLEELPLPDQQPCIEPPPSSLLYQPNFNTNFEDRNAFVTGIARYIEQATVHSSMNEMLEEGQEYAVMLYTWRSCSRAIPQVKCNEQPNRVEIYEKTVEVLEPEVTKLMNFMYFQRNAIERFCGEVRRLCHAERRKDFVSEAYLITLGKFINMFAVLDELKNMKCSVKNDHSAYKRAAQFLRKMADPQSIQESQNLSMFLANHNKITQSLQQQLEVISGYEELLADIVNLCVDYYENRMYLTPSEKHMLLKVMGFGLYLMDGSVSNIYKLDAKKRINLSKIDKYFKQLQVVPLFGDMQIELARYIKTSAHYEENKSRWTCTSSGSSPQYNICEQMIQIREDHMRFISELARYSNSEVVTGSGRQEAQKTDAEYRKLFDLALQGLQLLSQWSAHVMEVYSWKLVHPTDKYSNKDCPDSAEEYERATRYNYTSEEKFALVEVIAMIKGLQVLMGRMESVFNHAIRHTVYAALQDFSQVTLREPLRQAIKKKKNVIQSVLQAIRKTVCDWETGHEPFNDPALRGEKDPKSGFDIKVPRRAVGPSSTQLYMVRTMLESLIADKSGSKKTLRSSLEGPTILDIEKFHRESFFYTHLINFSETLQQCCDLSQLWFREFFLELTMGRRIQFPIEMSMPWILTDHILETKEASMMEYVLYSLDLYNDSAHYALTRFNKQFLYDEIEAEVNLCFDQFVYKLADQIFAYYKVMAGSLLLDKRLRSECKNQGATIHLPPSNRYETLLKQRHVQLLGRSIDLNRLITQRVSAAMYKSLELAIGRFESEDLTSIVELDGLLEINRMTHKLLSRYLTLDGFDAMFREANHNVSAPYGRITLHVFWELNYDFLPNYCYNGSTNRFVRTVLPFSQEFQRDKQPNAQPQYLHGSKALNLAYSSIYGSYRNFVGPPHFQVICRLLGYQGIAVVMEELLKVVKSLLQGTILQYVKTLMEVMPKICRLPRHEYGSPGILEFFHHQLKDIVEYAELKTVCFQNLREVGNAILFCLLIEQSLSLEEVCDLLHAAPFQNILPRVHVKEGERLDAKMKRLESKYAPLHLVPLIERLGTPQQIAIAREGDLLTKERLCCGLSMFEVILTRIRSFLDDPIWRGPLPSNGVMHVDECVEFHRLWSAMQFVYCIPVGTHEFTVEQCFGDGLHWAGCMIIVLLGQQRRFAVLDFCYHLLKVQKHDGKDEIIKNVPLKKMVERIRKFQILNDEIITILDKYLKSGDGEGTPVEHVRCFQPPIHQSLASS

Compound: Cc1cc(ccc1-c1ccccc1)C(=O)N1CCCN(CC1)C(=O)CCl [compound 10]
Experiment: probe-labelled cysteine peptide fold change vs DMSO (competition) (log2 fold change); higher = less target engagement (more negative = stronger competition)
Details: THP-1, incubation time: 4 h
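Further: competitive profiling in live THP-1 cells: cysteine peptides tagged with an iodoacetamide desthiobiotin (IA-DTB) probe, intensity after compound treatment relative to DMSO-treated cells.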

Target | probe-labelled cysteine peptide fold change (10 µM) | probe-labelled cysteine peptide fold change (50 µM)
DAZAP1_Q96EP5_63_DPNCVGTVLASR (UniProt Q96EP5) | 0.251 | 0.642
DBNL_Q9UJU6_127_AEEDVEPECIMEK (UniProt Q9UJU6) | -0.0618 | -0.108
CTSB_P07858_211_ICEPGYSPTYK (UniProt P07858) | -0.116 | -0.331
CTSB_P07858_93_EQWPQCPTIK (UniProt P07858) | -0.21 | -0.235
CTSC_P53634_321_YAQDFGLVEEACFPYTGTDSPCK (UniProt P53634) | -0.183 | -0.228
DAZAP1_Q96EP5_124_IFVGGIPHNCGETELR (UniProt Q96EP5) | -0.0141 | 0.171
DCAF13_Q9NV06_190_TNPICSMTWGFDSISSVK (UniProt Q9NV06) | 0.00434 | -0.0491
CTR9_Q6PD62_196_TNPGCPAEVR (UniProt Q6PD62) | -0.0165 | -0.0939
CTSD_P07339_117_LLDIACWIHHK (UniProt P07339) | -0.11 | -0.147
DARS2_Q6PI48_459_LRLECADLLETR (UniProt Q6PI48) | -0.0844 | 0.185
CUL1_Q13616_355_CGEAALNDPK (UniProt Q13616) | -0.148 | 0.0469
CTSC_P53634_448_GTDECAIESIAVAATPIPK (UniProt P53634) | -0.0111 | 0.0568
CXCR2_P25025_286_TQVIQETCER (UniProt P25025) | -0.0177 | 0.301
CYB5R3_P00387_204_DPDDHTVCHLLFANQTEK (UniProt P00387) | -0.099 | 0.158
DCXR_Q7Z4W1_58_ECPGIEPVCVDLGDWEATER (UniProt Q7Z4W1) | 0.125 | 0.231
CTTNBP2NL_Q9P2B4_186_QLSSMLVLECK (UniProt Q9P2B4) | 0.272 | 0.432
DCTN5_Q9BTE1_97_GVAFFPLHIGDHVFIEEDCVVNAAQIGSYVHVGK (UniProt Q9BTE1) | 0.24 | 0.2
DCAF6_Q58WW2_593_SCGVPEESASSEK (UniProt Q58WW2) | -0.0858 | -0.182
CXorf38_Q8TB03_133_QGPEECDAVALLSLINSCDHFVVDRK (UniProt Q8TB03) | -0.428 | -0.14
CTR9_Q6PD62_533_EHPNYVDCYLR (UniProt Q6PD62) | 0.106 | 0.142
CXorf38_Q8TB03_12_LNCAEYK (UniProt Q8TB03) | -0.408 | -0.844
CTPS2_Q9NRF8_313_DCYASVFK (UniProt Q9NRF8) | 0.13 | 0.171

A portion taken from the entries so far:
Target | probe-labelled cysteine peptide fold change (10 µM) | probe-labelled cysteine peptide fold change (50 µM)
DCAF13_Q9NV06_190_TNPICSMTWGFDSISSVK (UniProt Q9NV06) | 0.00434 | -0.0491
CTR9_Q6PD62_196_TNPGCPAEVR (UniProt Q6PD62) | -0.0165 | -0.0939
CTSD_P07339_117_LLDIACWIHHK (UniProt P07339) | -0.11 | -0.147
DARS2_Q6PI48_459_LRLECADLLETR (UniProt Q6PI48) | -0.0844 | 0.185
CUL1_Q13616_355_CGEAALNDPK (UniProt Q13616) | -0.148 | 0.0469
CTSC_P53634_448_GTDECAIESIAVAATPIPK (UniProt P53634) | -0.0111 | 0.0568
CXCR2_P25025_286_TQVIQETCER (UniProt P25025) | -0.0177 | 0.301
CYB5R3_P00387_204_DPDDHTVCHLLFANQTEK (UniProt P00387) | -0.099 | 0.158
DCXR_Q7Z4W1_58_ECPGIEPVCVDLGDWEATER (UniProt Q7Z4W1) | 0.125 | 0.231
CTTNBP2NL_Q9P2B4_186_QLSSMLVLECK (UniProt Q9P2B4) | 0.272 | 0.432
DCTN5_Q9BTE1_97_GVAFFPLHIGDHVFIEEDCVVNAAQIGSYVHVGK (UniProt Q9BTE1) | 0.24 | 0.2
DCAF6_Q58WW2_593_SCGVPEESASSEK (UniProt Q58WW2) | -0.0858 | -0.182

Next part:

Target | probe-labelled cysteine peptide fold change (10 µM) | probe-labelled cysteine peptide fold change (50 µM)
DARS_P14868_349_LEYCEALAMLR (UniProt P14868) | 0.204 | 0.208
DAZAP1_Q96EP5_39_SYFSQYGEVVDCVIMK (UniProt Q96EP5) | 0.257 | 0.0801
CYB5R3_P00387_284_APEAWDYGQGFVNEEMIRDHLPPPEEEPLVLMCGPPPMIQYACLPNLDHVGHPTER (UniProt P00387) | -0.228 | -0.849
DCAF8_Q5TAQ9_256_FLPNSGDSTLAMCAR (UniProt Q5TAQ9) | -0.0556 | -0.22
DDAH2_O95865_176_GLCGMGGPR (UniProt O95865) | -0.185 | -0.334
DCTD_P32321_83_YPYVCHAELNAIMNK (UniProt P32321) | 0.104 | 0.121
DCAF13_Q9NV06_71_DGVNCLAK (UniProt Q9NV06) | -0.188 | -0.0754
CXXC1_Q9P0U4_181+187_TEDCGHCDFCR (UniProt Q9P0U4) | -0.0321 | -0.0477
CTSA_P10619_241_LWSSLQTHCCSQNK (UniProt P10619) | 0.0659 | 0.0865
CUL4A_Q13619_289_LEEEGDRVITYLDHSTQKPLIACVEK (UniProt Q13619) | -0.202 | -0.571
DCAF12_Q5T6F0_380_LSACYGSK (UniProt Q5T6F0) | -0.161 | -0.717
CYFIP1_Q7L576_428_DCPDSAEEYER (UniProt Q7L576) | -0.13 | 0.212
CYBB_P04839_537_IGVFLCGPEALAETLSK (UniProt P04839) | 0.0485 | 0.104
CYC1_P08574_139_HLVGVCYTEDEAK (UniProt P08574) | 0.151 | 0.348
DBT_P11182_99_EGDTVSQFDSICEVQSDK (UniProt P11182) | -0.0362 | 0.32
DCTN1_Q14203_742_YYQHLYSIHLAEQPEDCTMQLADHIK (UniProt Q14203) | -0.00829 | -0.241
DCAF6_Q58WW2_513_GIGSHCK (UniProt Q58WW2) | -0.205 | -0.361
DCTN6_O00399_18_IAPGAVVCVESEIR (UniProt O00399) | -0.272 | 0.0612
DCP2_Q8IU60_391_KLQDNFETDAVYDLPSSSEDQLLEHAEGQPVACNGHCK (UniProt Q8IU60) | -0.353 | -1.7
DAZAP1_Q96EP5_124_IFVGGIPHNCGETELREYFK (UniProt Q96EP5) | -0.158 | -0.435
CYFIP1_Q7L576_1124_GPLPSNGVMHVDECVEFHR (UniProt Q7L576) | 0.0556 | 0.126
CUL4A_Q13619_94_YNLEELYQAVENLCSHK (UniProt Q13619) | -0.05 | 0.0488
